The exact form of at least one protein or probe is not confirmed. For some assays here: Negatives hold for the conditions tested.

Amino acid sequences for entries named in this document (tags omitted). A change or cut given only in a name is not applied to a line headed by its entry.
UniProt P20366: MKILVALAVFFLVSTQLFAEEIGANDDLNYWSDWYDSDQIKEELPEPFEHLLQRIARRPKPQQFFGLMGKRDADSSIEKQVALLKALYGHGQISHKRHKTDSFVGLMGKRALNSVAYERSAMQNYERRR

The target in one series is T1, Substance P (SP) (UniProt P20366).
T1 sequence: RPKPQQFFGLM
As to the kind of experiment: binding assay. The settings on record: equilibrium dialysis, 4 uM RNA, 2 uM SP; group representatives tested; synthetic protein. A general note: In equilibrium dialysis free small molecules cross a membrane that holds back macromolecules.

The test system of another series is Substance P fragment 1-4. As to the kind of experiment: competition with a labelled probe. The settings on record: no significant binding at 32 uM (20-fold excess over SP); synthetic protein; protein details: synthetic peptide, Sigma; variant of Ligand A13.

“GGGAGCUCAGAAUAAACGCUCAAAGGGCAACGCGGGCACCCCGACAGGUGCAAAACGCACCGACGCCCGGCCGAAGAAGGGGAUUCGACAUGAGGCCCGGAUCCGGC [Experiment A group 3/4 ligand (SEQ 21)]”: in the series with Substance P (SP), the binding result is “binds”.
On the same count and under the same terms, the result for “GGGAGCUCAGAAUAAACGCUCAACGCACGACGCACCGUUACAGGGGGGGAAAAAGCCAACCCGAGCGCACGACGGACCGACGCUUCGACAUGAGGCCCGGAUCCGGC [Experiment A group 3/4 ligand (SEQ 20)]” reads “binds”.
Consider “GGGAGCUCAGAAUAAACGCUCAACGCACGACGCACCGUUACAGGGGGGGAAAAGCCAACCCGAGCGCACGACGGACCGACGCUUCGACAUGAGGCCCGGAUCCGGC [Experiment A group 3/4 ligand (SEQ 19)]”, for which the binding result with Substance P (SP) is given as “binds”.
On the same count and under the same terms, under “GGGAGCUCAGAAUAAACGCUCAACGCACGACGCACCGUUACAGGGGGGGAAGAACCAACCCGAGCGCACGACGGACCGACGCUUCGACAUGAGGCCCGGAUCCGGC [Experiment A group 3/4 ligand (SEQ 18)]” stands “binds”.
On to “GGGAGCUCAGAAUAAACGCUCAACUUCCAAGGCAGUGGAAACCCUAAGGUCAAUAAUGACCAAUGACGCCGCUCCGGUUCAACCUUCGACAUGAGGCCCGGAUCCGGC [Ligand B28]”, for which, in the series with Substance P fragment 1-4, the binding result was “no binding”.

The record behind these values is patent US5637682, “High-affinity oligonucleotide ligands to the tachykinin substance P” (NeXstar Pharmaceuticals, Inc.).
